Structures can show the parent of a compound that is named as a salt. The list shows a part of the results. The calls rarely recur for the same compound in another form.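 Kinases, fused to nanoluciferase, were expressed in K562 cells; luminescence was measured every 4 h from 2 to 18 h as percent of control (DMSO = 100%, positive control = 0%). A time point is decreased if signal falls significantly (2 sigma). Hits were called by the authors by a rule that is not shown; the count of time points alone does not decide it.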
How the values were obtained:
Test in all cases: kinase-Nluc reporter destabilization hit call (1 = scored as downregulated) (binary); higher = compound decreases kinase abundance
Conditions in all cases: K562; 2-18 h
[1] = molecular target: IRAK3 (UniProt Q9Y616)
[2] = molecular target: JAK1 (UniProt P23458)
[3] = molecular target: LCK (UniProt P06239)
[4] = molecular target: LIMK1 (UniProt P53667)
[5] = molecular target: LIMK2 (UniProt P53671)
[6] = molecular target: LMTK2 (UniProt Q8IWU2)
[7] = molecular target: LYN (UniProt P07948)
[8] = molecular target: MAP2K1 (UniProt Q02750)
[9] = molecular target: MAP2K2 (UniProt P36507)
[10] = molecular target: MAP4K2 (UniProt Q12851)

Sequences of proteins named here, by UniProt entry; tags and fusion partners are left off. A change or cut given only in a name is not applied to a line headed by its entry.
UniProt Q9Y616: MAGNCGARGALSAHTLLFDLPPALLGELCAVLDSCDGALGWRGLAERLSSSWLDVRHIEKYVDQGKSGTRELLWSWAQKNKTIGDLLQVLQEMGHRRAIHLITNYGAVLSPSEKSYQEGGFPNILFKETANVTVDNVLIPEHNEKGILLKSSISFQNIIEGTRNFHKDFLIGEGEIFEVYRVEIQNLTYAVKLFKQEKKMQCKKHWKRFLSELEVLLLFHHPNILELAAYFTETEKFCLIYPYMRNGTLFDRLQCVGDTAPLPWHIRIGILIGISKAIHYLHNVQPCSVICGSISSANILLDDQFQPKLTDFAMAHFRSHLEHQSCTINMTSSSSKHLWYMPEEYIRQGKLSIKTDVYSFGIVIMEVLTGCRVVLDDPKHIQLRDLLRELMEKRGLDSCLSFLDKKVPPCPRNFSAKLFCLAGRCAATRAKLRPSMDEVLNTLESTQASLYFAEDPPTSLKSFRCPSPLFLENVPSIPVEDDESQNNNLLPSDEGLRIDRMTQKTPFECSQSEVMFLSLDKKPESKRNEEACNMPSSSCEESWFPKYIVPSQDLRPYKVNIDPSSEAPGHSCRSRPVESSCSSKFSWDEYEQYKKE
UniProt P23458: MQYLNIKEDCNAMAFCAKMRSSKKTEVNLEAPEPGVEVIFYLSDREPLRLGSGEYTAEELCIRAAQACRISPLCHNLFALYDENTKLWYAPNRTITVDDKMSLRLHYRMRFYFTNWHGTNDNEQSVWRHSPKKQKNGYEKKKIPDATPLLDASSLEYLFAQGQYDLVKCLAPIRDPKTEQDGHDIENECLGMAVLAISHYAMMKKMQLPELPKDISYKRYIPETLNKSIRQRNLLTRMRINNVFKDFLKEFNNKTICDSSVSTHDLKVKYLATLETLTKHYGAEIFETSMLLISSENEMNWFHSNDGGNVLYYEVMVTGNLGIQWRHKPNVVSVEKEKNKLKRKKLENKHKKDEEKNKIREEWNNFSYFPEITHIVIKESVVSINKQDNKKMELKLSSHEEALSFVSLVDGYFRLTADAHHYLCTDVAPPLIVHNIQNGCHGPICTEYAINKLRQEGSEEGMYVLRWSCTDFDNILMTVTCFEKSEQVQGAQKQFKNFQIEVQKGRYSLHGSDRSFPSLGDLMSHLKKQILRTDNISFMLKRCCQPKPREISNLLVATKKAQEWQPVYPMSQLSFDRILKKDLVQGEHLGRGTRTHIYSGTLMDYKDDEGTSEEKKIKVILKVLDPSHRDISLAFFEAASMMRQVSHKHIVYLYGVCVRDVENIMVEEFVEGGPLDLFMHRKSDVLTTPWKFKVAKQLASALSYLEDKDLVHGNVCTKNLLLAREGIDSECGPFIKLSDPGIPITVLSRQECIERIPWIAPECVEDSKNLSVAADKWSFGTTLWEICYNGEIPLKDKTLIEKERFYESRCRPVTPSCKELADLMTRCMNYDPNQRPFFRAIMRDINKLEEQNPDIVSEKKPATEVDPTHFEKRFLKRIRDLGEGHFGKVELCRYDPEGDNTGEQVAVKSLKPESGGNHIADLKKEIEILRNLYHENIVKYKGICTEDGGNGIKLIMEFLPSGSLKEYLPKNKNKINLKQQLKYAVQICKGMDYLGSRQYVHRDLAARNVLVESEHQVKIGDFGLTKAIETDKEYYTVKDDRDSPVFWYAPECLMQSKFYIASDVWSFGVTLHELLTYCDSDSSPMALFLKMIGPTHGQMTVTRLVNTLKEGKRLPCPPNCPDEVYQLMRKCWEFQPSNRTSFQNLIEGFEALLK
UniProt P06239: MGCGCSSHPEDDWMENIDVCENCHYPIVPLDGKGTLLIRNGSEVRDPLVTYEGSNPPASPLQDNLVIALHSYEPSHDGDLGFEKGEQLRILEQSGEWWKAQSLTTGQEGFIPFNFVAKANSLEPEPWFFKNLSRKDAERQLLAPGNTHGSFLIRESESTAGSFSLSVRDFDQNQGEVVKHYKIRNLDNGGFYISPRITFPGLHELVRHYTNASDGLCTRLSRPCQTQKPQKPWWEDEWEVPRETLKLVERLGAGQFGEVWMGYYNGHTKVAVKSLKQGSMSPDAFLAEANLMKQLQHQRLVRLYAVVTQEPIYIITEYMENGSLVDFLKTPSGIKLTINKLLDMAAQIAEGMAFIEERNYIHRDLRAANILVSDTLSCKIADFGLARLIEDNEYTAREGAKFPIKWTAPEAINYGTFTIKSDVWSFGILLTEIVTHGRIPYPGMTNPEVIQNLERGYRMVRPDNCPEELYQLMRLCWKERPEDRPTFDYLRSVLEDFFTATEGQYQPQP
UniProt P53667: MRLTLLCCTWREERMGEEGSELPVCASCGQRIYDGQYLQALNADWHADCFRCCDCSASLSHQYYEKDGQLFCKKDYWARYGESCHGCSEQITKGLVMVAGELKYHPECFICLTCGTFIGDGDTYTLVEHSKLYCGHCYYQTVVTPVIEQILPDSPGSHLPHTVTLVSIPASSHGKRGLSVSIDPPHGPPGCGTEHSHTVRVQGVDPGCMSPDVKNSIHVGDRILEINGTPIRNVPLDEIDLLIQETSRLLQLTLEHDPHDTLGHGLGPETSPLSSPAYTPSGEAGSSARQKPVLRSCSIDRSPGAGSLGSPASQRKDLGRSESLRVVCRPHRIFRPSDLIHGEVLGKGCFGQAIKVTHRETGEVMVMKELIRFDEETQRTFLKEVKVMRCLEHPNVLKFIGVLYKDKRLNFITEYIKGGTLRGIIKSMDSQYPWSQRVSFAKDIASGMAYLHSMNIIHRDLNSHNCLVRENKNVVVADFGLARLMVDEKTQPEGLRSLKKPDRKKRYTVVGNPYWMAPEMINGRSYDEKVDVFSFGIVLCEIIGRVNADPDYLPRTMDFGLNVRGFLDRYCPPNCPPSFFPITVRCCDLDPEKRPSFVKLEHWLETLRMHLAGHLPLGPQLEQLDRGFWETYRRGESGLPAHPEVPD
UniProt P53671: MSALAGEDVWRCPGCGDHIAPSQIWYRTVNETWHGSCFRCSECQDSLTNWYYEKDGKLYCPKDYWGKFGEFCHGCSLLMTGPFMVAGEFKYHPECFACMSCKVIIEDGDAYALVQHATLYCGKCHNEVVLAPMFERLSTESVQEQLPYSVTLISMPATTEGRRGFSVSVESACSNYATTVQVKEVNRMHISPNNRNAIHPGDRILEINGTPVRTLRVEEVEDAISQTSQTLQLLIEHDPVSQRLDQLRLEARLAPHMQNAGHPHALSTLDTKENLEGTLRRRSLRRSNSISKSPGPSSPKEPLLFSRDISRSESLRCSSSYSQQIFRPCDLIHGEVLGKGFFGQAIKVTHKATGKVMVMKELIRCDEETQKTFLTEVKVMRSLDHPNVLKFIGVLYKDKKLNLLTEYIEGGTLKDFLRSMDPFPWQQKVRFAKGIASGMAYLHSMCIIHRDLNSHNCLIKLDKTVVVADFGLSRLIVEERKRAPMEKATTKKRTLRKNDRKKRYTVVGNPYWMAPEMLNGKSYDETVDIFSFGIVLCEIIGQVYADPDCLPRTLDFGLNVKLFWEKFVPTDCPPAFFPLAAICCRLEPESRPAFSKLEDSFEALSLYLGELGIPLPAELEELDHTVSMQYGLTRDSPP
UniProt Q8IWU2: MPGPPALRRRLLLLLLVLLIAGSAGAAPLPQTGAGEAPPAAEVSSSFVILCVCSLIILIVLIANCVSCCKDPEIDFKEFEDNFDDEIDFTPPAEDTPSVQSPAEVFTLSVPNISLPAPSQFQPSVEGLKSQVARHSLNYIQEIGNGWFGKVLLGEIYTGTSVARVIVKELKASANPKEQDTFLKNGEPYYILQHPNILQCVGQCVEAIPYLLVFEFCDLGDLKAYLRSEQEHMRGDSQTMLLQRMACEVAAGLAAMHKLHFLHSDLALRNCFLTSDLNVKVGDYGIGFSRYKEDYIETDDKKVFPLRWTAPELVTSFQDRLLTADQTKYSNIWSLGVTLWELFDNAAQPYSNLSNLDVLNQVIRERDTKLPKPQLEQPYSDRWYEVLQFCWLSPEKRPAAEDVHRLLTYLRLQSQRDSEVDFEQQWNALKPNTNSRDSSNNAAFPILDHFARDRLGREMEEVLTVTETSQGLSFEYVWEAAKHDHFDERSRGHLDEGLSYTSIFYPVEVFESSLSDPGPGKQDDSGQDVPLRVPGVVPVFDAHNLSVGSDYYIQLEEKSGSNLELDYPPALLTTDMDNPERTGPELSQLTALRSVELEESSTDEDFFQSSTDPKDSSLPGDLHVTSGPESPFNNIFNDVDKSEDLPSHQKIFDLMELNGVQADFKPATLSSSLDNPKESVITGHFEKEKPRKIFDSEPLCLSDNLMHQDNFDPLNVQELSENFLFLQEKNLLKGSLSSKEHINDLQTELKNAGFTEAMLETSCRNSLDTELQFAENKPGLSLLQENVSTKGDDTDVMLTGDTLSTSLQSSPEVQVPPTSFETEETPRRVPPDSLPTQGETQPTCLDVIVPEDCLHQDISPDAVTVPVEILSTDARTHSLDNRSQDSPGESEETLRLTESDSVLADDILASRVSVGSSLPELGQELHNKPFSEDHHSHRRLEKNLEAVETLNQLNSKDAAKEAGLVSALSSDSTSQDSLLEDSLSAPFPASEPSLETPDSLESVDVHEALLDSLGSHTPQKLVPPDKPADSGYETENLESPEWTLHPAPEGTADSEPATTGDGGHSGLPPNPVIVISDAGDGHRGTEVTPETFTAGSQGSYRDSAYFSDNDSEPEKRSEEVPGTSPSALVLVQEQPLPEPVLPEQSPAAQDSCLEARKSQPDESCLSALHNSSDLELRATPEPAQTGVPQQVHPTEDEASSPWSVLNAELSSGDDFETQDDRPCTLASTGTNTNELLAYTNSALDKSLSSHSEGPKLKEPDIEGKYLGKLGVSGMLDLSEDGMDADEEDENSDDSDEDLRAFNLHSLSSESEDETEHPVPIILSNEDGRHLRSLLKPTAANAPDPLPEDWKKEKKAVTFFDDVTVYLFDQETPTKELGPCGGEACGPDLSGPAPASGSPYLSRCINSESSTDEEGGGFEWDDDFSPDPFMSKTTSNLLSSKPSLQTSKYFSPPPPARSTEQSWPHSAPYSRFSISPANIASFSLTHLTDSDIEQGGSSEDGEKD
UniProt P07948: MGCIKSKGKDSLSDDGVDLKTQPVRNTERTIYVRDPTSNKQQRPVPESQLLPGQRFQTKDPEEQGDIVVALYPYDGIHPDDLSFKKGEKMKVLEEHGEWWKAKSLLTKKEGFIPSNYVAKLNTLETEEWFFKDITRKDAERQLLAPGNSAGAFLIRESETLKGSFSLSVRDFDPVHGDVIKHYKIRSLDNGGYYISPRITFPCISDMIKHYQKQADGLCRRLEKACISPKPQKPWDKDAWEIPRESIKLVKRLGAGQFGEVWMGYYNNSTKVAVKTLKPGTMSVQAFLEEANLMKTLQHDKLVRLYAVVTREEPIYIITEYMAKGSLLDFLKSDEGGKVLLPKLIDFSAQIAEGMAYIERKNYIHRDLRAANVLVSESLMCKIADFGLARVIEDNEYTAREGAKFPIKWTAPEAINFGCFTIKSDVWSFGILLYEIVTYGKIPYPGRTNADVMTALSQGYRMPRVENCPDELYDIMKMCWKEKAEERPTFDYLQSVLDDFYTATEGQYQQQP
UniProt Q12851: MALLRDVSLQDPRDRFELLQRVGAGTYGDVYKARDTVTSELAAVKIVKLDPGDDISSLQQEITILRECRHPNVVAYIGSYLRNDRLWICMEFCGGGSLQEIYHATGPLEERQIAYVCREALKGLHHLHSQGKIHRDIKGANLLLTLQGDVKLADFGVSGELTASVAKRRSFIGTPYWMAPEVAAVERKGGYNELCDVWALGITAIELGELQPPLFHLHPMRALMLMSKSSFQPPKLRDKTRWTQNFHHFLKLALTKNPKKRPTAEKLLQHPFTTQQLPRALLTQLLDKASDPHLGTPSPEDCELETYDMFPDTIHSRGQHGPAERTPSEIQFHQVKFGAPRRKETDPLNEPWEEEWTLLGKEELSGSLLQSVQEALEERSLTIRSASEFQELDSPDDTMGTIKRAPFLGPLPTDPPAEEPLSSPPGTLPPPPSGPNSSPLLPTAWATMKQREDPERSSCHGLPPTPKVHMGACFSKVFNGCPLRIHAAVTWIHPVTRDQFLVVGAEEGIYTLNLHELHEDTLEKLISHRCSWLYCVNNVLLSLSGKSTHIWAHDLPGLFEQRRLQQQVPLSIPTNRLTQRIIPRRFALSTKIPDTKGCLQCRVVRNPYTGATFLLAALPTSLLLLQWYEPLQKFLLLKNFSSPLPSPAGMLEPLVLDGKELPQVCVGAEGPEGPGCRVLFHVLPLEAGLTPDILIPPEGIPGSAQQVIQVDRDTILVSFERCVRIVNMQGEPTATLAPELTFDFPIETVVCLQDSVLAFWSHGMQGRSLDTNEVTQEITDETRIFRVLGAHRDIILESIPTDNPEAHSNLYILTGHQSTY

Measured: kinase-Nluc reporter destabilization hit call

Cc1nc2c(NCc3cccc(S(C)(=O)=O)c3)nccn2c1-c1ccc(O)c(F)c1 (10 µM)
inactive: [1] 0 | [2] 0 | [3] 0 | [4] 0 | [5] 0 | [6] 0 | [7] 0 | [8] 0 | [9] 0 | [10] 0

Cc1cc(N2CCOCC2)ccc1Nc1nc(NC2CCCCC2)c2[nH]cnc2n1 (10 µM)
inactive: [1] 0 | [2] 0 | [3] 0 | [4] 0 | [5] 0 | [6] 0 | [7] 0 | [8] 0 | [9] 0 | [10] 0

COc1ccc(CCNCc2ccc(OCc3ccc(Cl)nc3)c(OC)c2)cc1OC [SBE13 (Hydrochloride)] (10 µM)
inactive: [1] 0 | [2] 0 | [3] 0 | [4] 0 | [5] 0 | [6] 0 | [7] 0 | [8] 0 | [9] 0 | [10] 0

CN(C)c1ccc(/C=C2\C(=O)Nc3ccccc32)c2ccccc12 (10 µM)
inactive: [1] 0 | [2] 0 | [3] 0 | [4] 0 | [5] 0 | [6] 0 | [7] 0 | [8] 0 | [9] 0 | [10] 0

O=c1cc(-c2ccc(O[C@@H]3O[C@H](CO)[C@@H](O)[C@H](O)[C@H]3O)cc2)oc2cc(O)c([C@@H]3O[C@H](CO)[C@@H](O)[C@H](O)[C@H]3O[C@@H]3OC[C@H](O)[C@H](O)[C@H]3O)c(O)c12 [Vaccarin] (10 µM)
inactive: [1] 0 | [2] 0 | [3] 0 | [4] 0 | [5] 0 | [6] 0 | [7] 0 | [8] 0 | [9] 0 | [10] 0

CN(C)CCOc1cc(-c2cn[nH]c2)ccc1NC(=O)C1COc2ccccc2O1 (stereo not given) (10 µM)
inactive: [1] 0 | [2] 0 | [3] 0 | [4] 0 | [5] 0 | [6] 0 | [7] 0 | [8] 0 | [9] 0 | [10] 0

CC(C)c1cc2c(c(O)c1O)[C@@]13CCCC(C)(C)[C@@H]1C[C@@H]2OC3=O [Carnosol] (2.5 µM)
inactive: [1] 0 | [2] 0 | [3] 0 | [4] 0 | [5] 0 | [6] 0 | [7] 0 | [8] 0 | [9] 0 | [10] 0

C=CC(=O)Nc1cc(Nc2nccc(-c3cn(C)c4ccccc34)n2)c(OCC(F)(F)F)nc1N(C)CCNC [AST5902  (trimesylate)] (2.5 µM)
inactive: [1] 0 | [2] 0 | [3] 0 | [4] 0 | [5] 0 | [6] 0 | [7] 0 | [8] 0 | [9] 0 | [10] 0

COC(=O)N1CCN(C2CCC(Nc3nc(Nc4cnn(C)c4)nc4ccc(CC#N)nc34)CC2)CC1 (stereo not given) (10 µM)
inactive: [1] 0 | [2] 0 | [3] 0 | [4] 0 | [5] 0 | [6] 0 | [7] 0 | [8] 0 | [9] 0 | [10] 0

3 structures out of the list, ordered by SMILES length, smallest number first.
CN(C)CCOc1cc(-c2cn[nH]c2)ccc1NC(=O)C1COc2ccccc2O1 (stereo not given) (10 µM)
inactive: [1] 0 | [2] 0 | [3] 0 | [4] 0 | [5] 0 | [6] 0 | [7] 0 | [8] 0 | [9] 0 | [10] 0

CC(C)c1cc2c(c(O)c1O)[C@@]13CCCC(C)(C)[C@@H]1C[C@@H]2OC3=O [Carnosol] (2.5 µM)
inactive: [1] 0 | [2] 0 | [3] 0 | [4] 0 | [5] 0 | [6] 0 | [7] 0 | [8] 0 | [9] 0 | [10] 0

O=c1cc(-c2ccc(O[C@@H]3O[C@H](CO)[C@@H](O)[C@H](O)[C@H]3O)cc2)oc2cc(O)c([C@@H]3O[C@H](CO)[C@@H](O)[C@H](O)[C@H]3O[C@@H]3OC[C@H](O)[C@H](O)[C@H]3O)c(O)c12 [Vaccarin] (10 µM)
inactive: [1] 0 | [2] 0 | [3] 0 | [4] 0 | [5] 0 | [6] 0 | [7] 0 | [8] 0 | [9] 0 | [10] 0

Next part.

COc1c(Nc2ncc(Cl)c(N[C@H]3[C@@H](C(N)=O)[C@@H]4C=C[C@H]3C4)n2)ccc2c1CC[C@@H](N1CCOCC1)CC2 (10 µM)
inactive: [1] 0 | [2] 0 | [3] 0 | [4] 0 | [5] 0 | [6] 0 | [7] 0 | [8] 0 | [9] 0 | [10] 0

COc1ccc(Cl)cc1N(CC(=O)Nc1ccc2c(c1)OCO2)S(=O)(=O)c1ccccc1 (2.5 µM)
inactive: [1] 0 | [2] 0 | [3] 0 | [4] 0 | [5] 0 | [6] 0 | [7] 0 | [8] 0 | [9] 0 | [10] 0

Cc1nc(NC(=O)N2CCC[C@H]2C(N)=O)sc1-c1ccnc(C(C)(C)C(F)(F)F)c1 [Alpelisib] (2.5 µM)
inactive: [1] 0 | [2] 0 | [3] 0 | [4] 0 | [5] 0 | [6] 0 | [7] 0 | [8] 0 | [9] 0 | [10] 0

Nc1nccc(Oc2ccc3c(C(=O)Nc4cccc(C(F)(F)F)c4)cccc3c2)n1 (10 µM)
inactive: [1] 0 | [2] 0 | [3] 0 | [4] 0 | [5] 0 | [6] 0 | [7] 0 | [8] 0 | [9] 0 | [10] 0

O=C1C=CC2=C3c4cc(O)c(O)cc4CC3(O)COC2=C1O (stereo not given) [Hematein] (10 µM)
inactive: [1] 0 | [2] 0 | [3] 0 | [4] 0 | [5] 0 | [6] 0 | [7] 0 | [8] 0 | [9] 0 | [10] 0

CC(C)(CCCCCC(O)CCCCCC(C)(C)C(=O)O)C(=O)O [Bempedoic acid] (10 µM)
inactive: [1] 0 | [2] 0 | [3] 0 | [4] 0 | [5] 0 | [6] 0 | [7] 0 | [8] 0 | [9] 0 | [10] 0

NC(=O)c1sc2c([N+](=O)[O-])cc(C(F)(F)F)cc2[n+]1[O-] [Cyclapolin 9] (10 µM)
inactive: [1] 0 | [2] 0 | [3] 0 | [4] 0 | [5] 0 | [6] 0 | [7] 0 | [8] 0 | [9] 0 | [10] 0

COc1cc2nnc(C(N)=O)c(Nc3ccc(C)cc3F)c2cc1N1CCN(CCO)CC1 (2.5 µM)
inactive: [1] 0 | [2] 0 | [3] 0 | [4] 0 | [5] 0 | [6] 0 | [7] 0 | [8] 0 | [9] 0 | [10] 0

Nc1ccc(Sc2nc3ccccc3s2)c(Cl)c1 [KRAS inhibitor-9] (10 µM)
inactive: [1] 0 | [2] 0 | [3] 0 | [4] 0 | [5] 0 | [6] 0 | [7] 0 | [8] 0 | [9] 0 | [10] 0

CN1CCN(c2ccc(-n3cc(-c4ccncc4OCC4CCNCC4)cn3)cc2)CC1 [MELK-8a (hydrochloride)] (10 µM)
inactive: [1] 0 | [2] 0 | [3] 0 | [4] 0 | [5] 0 | [6] 0 | [7] 0 | [8] 0 | [9] 0 | [10] 0

Cc1cnc(Nc2ccc(F)cc2Cl)nc1-c1c[nH]c(C(=O)N[C@H](CO)c2cccc(Cl)c2)c1 (10 µM)
inactive: [1] 0 | [2] 0 | [3] 0 | [4] 0 | [5] 0 | [6] 0 | [7] 0 | [8] 0 | [9] 0 | [10] 0

NC(=O)c1ccccc1Nc1ccnc(Nc2cccc(O)c2)n1 (10 µM)
inactive: [1] 0 | [2] 0 | [3] 0 | [4] 0 | [5] 0 | [6] 0 | [7] 0 | [8] 0 | [9] 0 | [10] 0

CO/N=C1/C(c2c(O)[nH]c3cc(Cl)c(Cl)cc23)=Nc2ccccc21 (10 µM)
inactive: [1] 0 | [2] 0 | [3] 0 | [4] 0 | [5] 0 | [6] 0 | [7] 0 | [8] 0 | [9] 0 | [10] 0

Cn1cc(C2=C(c3ccc(Cl)cc3Cl)C(=O)NC2=O)c2ccccc21 (10 µM)
inactive: [1] 0 | [2] 0 | [3] 0 | [4] 0 | [5] 0 | [6] 0 | [7] 0 | [8] 0 | [9] 0 | [10] 0

Nc1ccc(-c2cccc(C(=O)Nc3cnc4nc(N5CCOCC5)oc4c3)n2)cn1 (10 µM)
inactive: [1] 0 | [2] 0 | [3] 0 | [4] 0 | [5] 0 | [6] 0 | [7] 0 | [8] 0 | [9] 0 | [10] 0

O=C(C#Cc1ccccc1)c1cccc([N+](=O)[O-])c1 (10 µM)
inactive: [1] 0 | [2] 0 | [3] 0 | [4] 0 | [5] 0 | [6] 0 | [7] 0 | [8] 0 | [9] 0 | [10] 0

N#C/C(=C/c1ccc(O)c(O)c1)C(=O)N1CCc2ccccc21 [Tyrphostin AG 528] (10 µM)
inactive: [1] 0 | [2] 0 | [3] 0 | [4] 0 | [5] 0 | [6] 0 | [7] 0 | [8] 0 | [9] 0 | [10] 0

Nc1[nH]nc2nnc(-c3c(-c4ccccc4)nn4ccccc34)cc12 (10 µM)
inactive: [1] 0 | [2] 0 | [3] 0 | [4] 0 | [5] 0 | [6] 0 | [7] 0 | [8] 0 | [9] 0 | [10] 0

CNc1cc2c(Nc3cccc(Br)c3)ncnc2cn1 (10 µM)
inactive: [1] 0 | [2] 0 | [3] 0 | [4] 0 | [5] 0 | [6] 0 | [7] 0 | [8] 0 | [9] 0 | [10] 0

CCCCNc1ncc(C(=O)NCc2ccc(-n3ccnc3)cc2)c(NC2CCC(O)CC2)n1 (stereo not given) (10 µM)
inactive: [1] 0 | [2] 0 | [3] 0 | [4] 0 | [5] 0 | [6] 0 | [7] 0 | [8] 0 | [9] 0 | [10] 0

NC(=O)c1c(NC(=O)C2CC2)sc2c1CCCC2 (10 µM)
inactive: [1] 0 | [2] 0 | [3] 0 | [4] 0 | [5] 0 | [6] 0 | [7] 0 | [8] 0 | [9] 0 | [10] 0

— the supplement of paper PMC12823440, “Inhibitors supercharge kinase turnover through native proteolytic circuits” (Nature, 2025)
